The campaign covered roughly 330,000 compounds. About 1,000 (0.3%) were called active. This list was built around the results that the source calls inconclusive (neither active nor inactive); the mix of calls is not that of the screen. Calls follow the shape of the dose curve; as a rule, active = well fitted inhibition curve with a large enough effect; inconclusive = small, poorly fitted or top-dose-only effect; inactive = no such curve, though single readings can be large or run the other way; tested in mouse RAW 264.7 cells. A potency beside an inconclusive call is a rough fit, not a confirmed value.
Test: qHTS for Inhibitors of Cell Surface uPA Generation; also: nearly all actives have a fitted effect of over 55% in size
Conditions: cell surface uPA generation assay; series mostly up to 38.3 µM; activity change, negative = inhibition: at the top concentration
Summary of the method: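 Using RAW 264.7 macrophages, the screen measures whether compounds keep cellular ATP up by preventing uPA-driven LF translocation. Treatment lasted 24 h at 37 C, with a final top concentration of 38.3 uM, and luminescence was the readout.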
% is scaled to controls: 0 for no effect and ±100 for the full control effect; potency is read from the fitted curve at half-maximal effect.

Which “activity change, negative = inhibition” value does the source give for `CN(/N=C/c1cc(Br)cc(Br)c1O)c1cccc(C(F)(F)F)n1` here?
The value was inactive: 6.95%.

For `COc1cccc2oc(-c3ccco3)cc(=O)c12`, which Potency is on record?
Its Potency is inconclusive: 8.91 µM [inhibitor, partial curve].

For `C[C@@H](O)CC#Cc1ccc2oc(=O)c(-n3cc(-c4ccsc4)nn3)cc2c1`, which Potency is on record?
Its Potency is inconclusive: 7.94 µM [inhibitor, partial curve, poor fit].

For `Cc1ccc(NC(=S)NCCSc2ccc(Cl)cc2)cc1`, which “activity change, negative = inhibition” value is on record?
The value was inactive: 4.12%.

Which Potency does the source give for `C[C@H](CO)N1C[C@H](C)[C@@H](CN(C)Cc2ccc(Cl)c(Cl)c2)Oc2c(NS(=O)(=O)c3ccc(F)cc3)cccc2C1=O` here?
The Potency was inconclusive: 12.6 µM [inhibitor, single point].

For `Cc1ccc2c(c1)COc1c3ccc(C(=O)N[C@@H](CO)C(C)C)cc3nn1-2`, which Potency is on record?
The Potency was inconclusive: 5.62 µM [inhibitor, single point].

With `C=CCn1c(Cc2ccccc2)nnc1SCc1nc2ccccc2c(=O)[nH]1` as the molecule, how does the “activity change, negative = inhibition” value read?
Its value is inactive: -7.45%.

With `CC(C)n1c(C(=O)OCC(=O)NCc2ccc3c(c2)OCO3)cc2occc21` as the molecule, how does the “activity change, negative = inhibition” value read?
The value was inactive: -2.06%.

Which Potency does the source give for `CC1(C)Cc2nc3scc(NC(=O)c4ccccc4)c3cc2CO1` here?
Its Potency is inconclusive: 3.16 µM [inhibitor, partial curve, poor fit].

With `O=C(CNC(=O)c1cccnc1)N/N=C/c1ccc(O)cc1O` as the molecule, how does the “activity change, negative = inhibition” value read?
The value was inactive: 3.15%.

Which “activity change, negative = inhibition” value does the source give for `COC(=O)c1cc(=O)n(Cc2cccs2)c(=NCc2cccs2)s1` here?
Its value is inactive: -0.716%.

Which Potency does the source give for `COc1ccc(-n2nc3c(N4CCC(C(=O)N5CCCCCC5)CC4)nnc(C)c3c2C)cc1` here?
The Potency was inconclusive: 31.6 µM [inhibitor, single point].

With `CC(Oc1ccc(Cl)cc1Cl)C(=O)Nc1cccc(O)c1` (stereo not given) as the molecule, how does the “activity change, negative = inhibition” value read?
Its value is inactive: 3.68%.

With `COc1ccccc1NC(=O)COc1ccc2c(c1)OCO2` as the molecule, how does the Potency read?
The Potency was inconclusive: 14.1 µM [inhibitor, single point].

For `CC(=O)c1ccc(-c2ccccc2OC(F)(F)F)o1`, which Potency is on record?
Its Potency is inconclusive: 0.0071 µM [inhibitor, full curve, poor fit].

With `Cc1ccc(C)c(CN2C(=O)c3ccccc3S(=O)c3ccc(C(=O)N4CCN(c5ccccn5)CC4)cc32)c1` (stereo not given) as the molecule, how does the “activity change, negative = inhibition” value read?
The value was inactive: -9.8%.

For `O=C(N/N=C/c1ccc([N+](=O)[O-])o1)c1cc(-c2ccc(-c3ccccc3)cc2)nc2ccccc12`, which “activity change, negative = inhibition” value is on record?
The value was inactive: -17.4%.

For `CN(CC(=O)Nc1ccccc1Cl)C(=O)COC(=O)c1ccc(Cl)cc1[N+](=O)[O-]`, which Potency is on record?
Its Potency is inconclusive: 2.82 µM [inhibitor, partial curve, poor fit].

For `CC(NC(=O)COC(=O)COc1ccc(C(=O)c2ccccc2)cc1)c1ccccc1` (stereo not given), which Potency is on record?
Its Potency is inconclusive: 2.82 µM [inhibitor, single point].

For `Cc1cc2cc(CNC(=O)c3ccco3)ccc2n1C`, which “activity change, negative = inhibition” value is on record?
Its value is inactive: 2.38%.

For `COc1cc(C(=O)N2CCN(c3cc(Cl)ccc3Cl)CC2)cc(OC)c1OC`, which Potency is on record?
Its Potency is inconclusive: 0.0251 µM [inhibitor, full curve, poor fit].

Which “activity change, negative = inhibition” value does the source give for `O=C(NC1CC1)c1cccc(NC(=O)C2CCN(S(=O)(=O)c3cccc(C(F)(F)F)c3)CC2)c1` here?
The value was inactive: -18.6%.

For `CCOC(=O)c1c(C)[nH]c(C2=NNC(=Nc3ccccc3)SC2)c1C`, which Potency is on record?
The Potency was inconclusive: 12.6 µM [inhibitor, partial curve, poor fit].

For `C[C@H](CO)N1C[C@H](C)[C@H](CN(C)Cc2ccc(-c3ccccc3)cc2)Oc2ccc(NS(=O)(=O)c3ccccc3)cc2CC1=O`, which Potency is on record?
Its Potency is inconclusive: 8.91 µM [inhibitor, partial curve, poor fit].

For `COc1ccc(/C=C2\Cc3ccccc3C2=O)cc1OC`, which Potency is on record?
Its Potency is inconclusive: 6.31 µM [inhibitor, partial curve, poor fit].

For `C/C(=N\NC(=O)c1ccccc1O)c1cccc(NC(=O)c2ccccc2)c1`, which Potency is on record?
The Potency was inconclusive: 8.91 µM [inhibitor, partial curve, poor fit].

Which Potency does the source give for `O=C(CN1CCCCC1CO)c1ccc(OC(F)F)cc1` (stereo not given) here?
Its Potency is inconclusive: 12.6 µM [inhibitor, single point].

For `Cc1ccc(/C=N/n2c(COc3ccccc3)n[nH]c2=S)s1`, which “activity change, negative = inhibition” value is on record?
Its value is inactive: 2.91%.

With `CC(=O)c1cccc(NC(=O)Cn2nc(-c3ccc(Cl)cc3)ccc2=O)c1` as the molecule, how does the Potency read?
Its Potency is inconclusive: 1 µM [inhibitor, full curve, poor fit].

For `O=C(CSc1nc(-c2ccco2)cc(C(F)(F)F)n1)Nc1ccccc1C(F)(F)F`, which “activity change, negative = inhibition” value is on record?
Its value is inactive: -11.2%.

Which Potency does the source give for `CCCCN(CCCNC(=O)Cn1nc(CC)n2c(cc3sc(C)cc32)c1=O)Cc1ccccc1` here?
Its Potency is inconclusive: 12.6 µM [inhibitor, single point].

For `CN(C)S(=O)(=O)c1cc(NC(=O)C2=COCCO2)ccc1Cl`, which Potency is on record?
Its Potency is inconclusive: 2.82 µM [inhibitor, full curve, poor fit].

Which Potency does the source give for `COc1cc(/C=N/Nc2nn3cnnc3c3ccccc23)ccc1O` here?
Its Potency is inconclusive: 0.891 µM [inhibitor, partial curve, poor fit].

For `Cc1ccc(C)c(S(=O)(=O)N2CCN(C(=O)CCc3c[nH]c4ccccc34)CC2)c1`, which Potency is on record?
The Potency was inconclusive: 1.12 µM [inhibitor, single point].

With `COc1cc(C(=O)OCC(=O)Nc2ccc(OC(F)F)cc2)cc(OC)c1OC` as the molecule, how does the “activity change, negative = inhibition” value read?
The value was inactive: -0.884%.

For `Cc1ccc(S(=O)(=O)N2CCCCC2)cc1C(=O)N(C)CC(=O)Nc1ccc(Cl)c(C(F)(F)F)c1`, which Potency is on record?
The Potency was inconclusive: 11.2 µM [inhibitor, single point].

For `Cc1cc(=O)n2[nH]c(C)c(-c3ccc(Cl)cc3)c2n1`, which “activity change, negative = inhibition” value is on record?
Its value is inactive: -14.3%.

With `Cc1[nH]n(-c2ccccc2)c(=O)c1C=Nc1ccc(S(=O)(=O)N=C(N)N)cc1` as the molecule, how does the “activity change, negative = inhibition” value read?
The value was inactive: -11.3%.

For `CCOC(=O)Cn1nc(NC(=O)c2ccc3c(c2)OCO3)cc1C`, which Potency is on record?
The Potency was inconclusive: 8.91 µM [inhibitor, single point].

With `COc1ccc(C(=O)NCC(=O)OCC(=O)N2N=C(c3ccc(Cl)cc3)CC2c2ccco2)cc1OC` (stereo not given) as the molecule, how does the Potency read?
The Potency was inconclusive: 28.2 µM [inhibitor, single point].

Which Potency does the source give for `CCCCN1C(=O)C(O)(CC(=O)c2ccco2)c2cc(Br)ccc21` (stereo not given) here?
The Potency was inconclusive: 12.6 µM [inhibitor, single point].

For `Cn1nc(C(F)(F)F)c(-c2ccc(F)cc2)c1NC(=O)c1cccnc1`, which Potency is on record?
Its Potency is inconclusive: 14.1 µM [inhibitor, single point].

Which Potency does the source give for `COc1cccc(OCC(=O)Nc2c3c(nn2-c2ccccc2)CS(=O)(=O)C3)c1` here?
Its Potency is inconclusive: 1.58 µM [inhibitor, full curve, poor fit].

Which “activity change, negative = inhibition” value does the source give for `O=C(/C=C/c1ccccc1Cl)NNC(=O)c1ccncc1` here?
Its value is inactive: -6.35%.

Which “activity change, negative = inhibition” value does the source give for `CCOC(=O)c1cc2c(=O)n3ccccc3nc2n(CCCOC)c1=NC(=O)C(C)(C)C` here?
Its value is inactive: 6.25%.

With `CCOC(=O)C1CCN(c2ccccc2CN2CCN(c3ccccc3OCC)CC2)CC1` as the molecule, how does the Potency read?
The Potency was inconclusive: 2.24 µM [inhibitor, single point].

Which Potency does the source give for `COc1ncccc1-c1nnn(-c2ccc(C)cc2)n1` here?
Its Potency is inconclusive: 5.01 µM [inhibitor, partial curve, poor fit].

With `c1ccc(CSc2ncnc3sccc23)cc1` as the molecule, how does the Potency read?
The Potency was inconclusive: 0.891 µM [inhibitor, full curve, poor fit].

With `O=C(/C=C/c1ccco1)Nc1nc(-c2ccccn2)cs1` as the molecule, how does the Potency read?
The Potency was inconclusive: 3.55 µM [inhibitor, partial curve, poor fit].

Which Potency does the source give for `CC(C)(C)OC(=O)NCCCC[C@H](NC(=O)c1[nH]cnc1C(=O)Nc1ccccc1)C(=O)OC(C)(C)C` here?
Its Potency is inconclusive: 12.6 µM [inhibitor, single point].

For `O=C1CCC[C@@H]2C[C@@]3(C[C@@H]4CCN1[C@H]24)Nc1cc(Cl)c(Cl)cc1NC3=NCc1ccccc1`, which Potency is on record?
Its Potency is inconclusive: 12.6 µM [inhibitor, single point].

Which Potency does the source give for `CCOc1ccccc1NC(=O)Cn1c(=O)c(OCC)nc2cnccc21` here?
Its Potency is inconclusive: 12.6 µM [inhibitor, single point].

Which Potency does the source give for `CCN(CC)S(=O)(=O)c1ccc2c(c1)nc(CCC(=O)Nc1ccccc1Cc1ccccc1)n2CC` here?
Its Potency is inconclusive: 0.0178 µM [inhibitor, full curve, poor fit].

For `CC1CCCCC1N(C)C1CCN(C(=O)CNC(=O)/C=C/c2cccc(Cl)c2)CC1` (stereo not given), which Potency is on record?
Its Potency is inconclusive: 1.26 µM [inhibitor, single point].

For `C[n+]1cccc(C(=O)Nc2ccccc2)c1`, which Potency is on record?
Its Potency is inconclusive: 1.12 µM [inhibitor, partial curve, poor fit].

For `Cc1ccc(/C=C/C(=O)Nc2cccc3ncccc23)o1`, which Potency is on record?
Its Potency is inconclusive: 10 µM [inhibitor, single point].

With `O=[N+]([O-])c1cccc2ccc(/C=C/c3cccc(Br)c3)nc12` as the molecule, how does the “activity change, negative = inhibition” value read?
Its value is inactive: 5.78%.

Which “activity change, negative = inhibition” value does the source give for `COc1cccc(CNC(=O)CCNC(=O)N2CCn3c2nc2ccccc23)c1` here?
Its value is inactive: -6.32%.

For `COc1ccc(C(=O)N/N=C/c2c(CO)cnc(C)c2O)cc1`, which Potency is on record?
Its Potency is inconclusive: 28.2 µM [inhibitor, single point].

For `Cc1cc(C(=O)Nc2ccc(Br)cn2)sc1C`, which Potency is on record?
The Potency was inconclusive: 28.2 µM [inhibitor, single point].

For `COc1cc(C(CCN2CCN(c3ccccc3)CC2)c2c(OC)cc(OC)c3c(C)cc(=O)oc23)cc(OC)c1OC` (stereo not given), which Potency is on record?
The Potency was inconclusive: 15.8 µM [inhibitor, single point].

For `CCN1C(=O)c2ccccc2S(=O)c2ccc(C(=O)N3CCCCCC3)cc21` (stereo not given), which Potency is on record?
Its Potency is inconclusive: 11.2 µM [inhibitor, single point].

With `O=C(Nc1ccc(Cl)cc1)Nc1ccc2c(c1)OCO2` as the molecule, how does the “activity change, negative = inhibition” value read?
Its value is inactive: -8.6%.

For `Oc1cc(-c2ccc(N3CCCCC3)nc2)cc2cccnc12`, which Potency is on record?
The Potency was inconclusive: 8.91 µM [inhibitor, single point].

For `COc1ccc(C(=O)N=c2sc3c(C)ccc(OC)c3n2C)cc1`, which Potency is on record?
Its Potency is inconclusive: 3.16 µM [inhibitor, partial curve, poor fit].
